From patent US20220275417A1
These are yes or no findings as the source states them, for the method shown. Some entries that bind do so weakly or less than the wild type. Sequences can lack the tags named with a protein.

Molecular target: CD4 on the surface of HEK293 cells transfected with pCAGGS-CD4-myc (UniProt P01730)
Assay: immunofluorescence staining of fixed CD4-expressing HEK293 cells, anti-FLAG-AF488 secondary

- binding: binds
B1: anti-CD4-FLAG-barcode 1 (VHH)
VHH: EVQLVESGGGSVQPGGSLTLSCGTSGRTFNVMGWFRQAPGKEREFVAAVRWSSTGIYYTQYADSVKSRFTISRDNAKNTVYLEMNSLKPEDTAVYYCAADTYNSNPARWDGYDFRGQGTQVTVSS
